Assay results reported in paper PMC11673421.

Sequences of proteins named here, by UniProt entry; tags and fusion partners are left off. Residues count along the entry.
UniProt Q9NXA8, residues 37-310: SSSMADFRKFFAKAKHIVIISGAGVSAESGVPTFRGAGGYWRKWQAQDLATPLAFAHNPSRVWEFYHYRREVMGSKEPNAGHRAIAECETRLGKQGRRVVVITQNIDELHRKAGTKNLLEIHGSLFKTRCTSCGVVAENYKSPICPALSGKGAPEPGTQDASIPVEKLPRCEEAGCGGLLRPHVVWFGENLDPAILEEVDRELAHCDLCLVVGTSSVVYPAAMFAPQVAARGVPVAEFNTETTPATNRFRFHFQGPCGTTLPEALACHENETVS
UniProt O35488: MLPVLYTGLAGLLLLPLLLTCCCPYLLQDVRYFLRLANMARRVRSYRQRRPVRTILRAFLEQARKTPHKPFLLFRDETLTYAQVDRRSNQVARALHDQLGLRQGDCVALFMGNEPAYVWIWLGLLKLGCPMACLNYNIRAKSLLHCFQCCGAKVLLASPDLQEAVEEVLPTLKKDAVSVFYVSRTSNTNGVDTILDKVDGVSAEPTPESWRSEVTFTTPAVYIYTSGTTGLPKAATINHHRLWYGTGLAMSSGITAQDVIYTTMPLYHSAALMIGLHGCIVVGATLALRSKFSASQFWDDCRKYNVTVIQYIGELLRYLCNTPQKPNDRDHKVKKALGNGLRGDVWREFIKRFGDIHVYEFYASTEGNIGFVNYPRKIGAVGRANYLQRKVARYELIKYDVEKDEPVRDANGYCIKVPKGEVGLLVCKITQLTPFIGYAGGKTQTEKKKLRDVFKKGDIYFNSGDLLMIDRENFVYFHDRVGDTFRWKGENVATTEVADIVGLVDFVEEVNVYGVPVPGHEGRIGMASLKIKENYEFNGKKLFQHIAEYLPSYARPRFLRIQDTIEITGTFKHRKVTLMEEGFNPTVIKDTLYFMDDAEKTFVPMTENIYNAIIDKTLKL
UniProt Q9DBM2: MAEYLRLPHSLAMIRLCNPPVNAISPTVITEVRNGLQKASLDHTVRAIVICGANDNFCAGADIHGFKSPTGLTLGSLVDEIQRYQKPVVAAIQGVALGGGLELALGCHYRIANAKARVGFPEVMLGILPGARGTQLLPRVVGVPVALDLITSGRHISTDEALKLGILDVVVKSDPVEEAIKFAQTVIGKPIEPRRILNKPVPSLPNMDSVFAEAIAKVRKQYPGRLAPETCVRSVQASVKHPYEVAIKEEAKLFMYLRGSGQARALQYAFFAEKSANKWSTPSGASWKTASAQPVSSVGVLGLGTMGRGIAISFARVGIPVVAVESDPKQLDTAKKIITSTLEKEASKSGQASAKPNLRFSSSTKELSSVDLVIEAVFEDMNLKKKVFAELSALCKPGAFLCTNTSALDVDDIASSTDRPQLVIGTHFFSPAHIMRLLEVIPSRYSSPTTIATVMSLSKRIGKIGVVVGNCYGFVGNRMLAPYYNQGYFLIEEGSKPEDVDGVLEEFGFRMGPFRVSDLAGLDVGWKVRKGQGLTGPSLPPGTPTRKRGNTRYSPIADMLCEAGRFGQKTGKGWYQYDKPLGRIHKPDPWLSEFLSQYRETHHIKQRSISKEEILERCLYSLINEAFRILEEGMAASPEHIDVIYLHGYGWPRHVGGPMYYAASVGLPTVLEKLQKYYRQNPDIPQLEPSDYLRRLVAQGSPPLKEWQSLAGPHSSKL
UniProt Q99P30: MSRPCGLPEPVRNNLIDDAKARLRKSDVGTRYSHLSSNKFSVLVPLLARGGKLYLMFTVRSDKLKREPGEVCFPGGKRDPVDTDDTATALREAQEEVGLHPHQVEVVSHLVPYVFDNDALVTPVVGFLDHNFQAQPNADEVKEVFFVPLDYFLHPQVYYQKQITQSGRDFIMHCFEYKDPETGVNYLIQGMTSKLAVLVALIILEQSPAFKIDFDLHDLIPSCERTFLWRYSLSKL

Target: recombinant 6His tagged SIRT5 (human sirtuin-5) (human) (UniProt Q9NXA8)
Experiment: affinity purification with mass spectrometry; 5 ug recombinant 6His-SIRT5 added to pre-cleared SIRT5KO mouse liver lysate in RIPA buffer, 37 C for 30 min; polyHis-antibody agarose overnight at 4 C; 4 washes with RIPA; SDS-PAGE bands excised and identified by mass spectrometry; only the target purified

binding	Molecule
binds	Lon protease homolog 2, peroxisomal (LONP2) (enzyme, UniProt Q9DBN5 1-852) MSSVSPIQIPSRLPLLLTHESVLLPGSTMRTSVDTARNLQLVRSRLLKGTSLQSTILGVIPNTPDPASDTQDLPPLHRIGTAALAVQVVGSNWPKPHYTLLITGLCRFQIVQVLKEKPYPVAEVEQLDRLEEFPNICKSREELGELSEQFYRYAVQLVEMLDMSVPAVAKLRRLLDNLPREALPDILTSIIRTSNKEKLQILDAVSLEDRFKMTIPLLVRQIEGLKLLQKTRKPKQDDDKRVIAIRPIRRIPHIPGTLEDEEEEEDNDDIVMLEKKIRTSSMPEQAHKVCVKEIKRLKKMPQSMPEYALTRNYLELMVELPWNKSTTDRLDIRAARILLDNDHYAMEKLKRRVLEYLAVRQLKNNLKGPILCFVGPPGVGKTSVGRSVAKTLGREFHRIALGGVCDQSDIRGHRRTYVGSMPGRIINGLKTVGVNNPVFLLDEVDKLGKSLQGDPAAALLEVLDPEQNHNFTDHYLNVAFDLSQVLFIATANTTATIPPALLDRMEIIQVPGYTQEEKIEIAHRHLIPKQLEQHGLTPQQIQIPQHTTLAIITRYTREAGVRSLDRKFGAICRAVAVKVAEGQHKEAKLDRSDVADGEGCKEHVLEDAKPESISDTADLALPPEMPILIDSHALKDILGPPLYELEVSERLSQPGVAIGLAWTPLGGKIMFVEASRMDGEGQLTLTGQLGDVMKESAHLAISWLRSNAKKYHLTNAFGSFDLLDNTDIHLHFPAGAVTKDGPSAGVTIVTCLASLFSGRLVRSDVAMTGEITLRGLVLPVGGIKDKVLAAHRAGLKQIIIPQRNEKDLEEIPSNVRQDLSFVTASCLDEVLNAAFDGGFPVKTRPGLIDSKL
binds	Uricase (UOX) (enzyme, UniProt P25688 1-303) MAHYHDNYGKNDEVEFVRTGYGKDMVKVLHIQRDGKYHSIKEVATSVQLTLRSKKDYLHGDNSDIIPTDTIKNTVHVLAKLRGIRNIETFAMNICEHFLSSFNHVTRAHVYVEEVPWKRFEKNGIKHVHAFIHTPTGTHFCEVEQMRNGPPVIHSGIKDLKVLKTTQSGFEGFLKDQFTTLPEVKDRCFATQVYCKWRYQRRDVDFEAIWGAVRDIVLQKFAGPYDKGEYSPSVQKTLYDIQVLSLSQLPEIEDMEISLPNIHYFNIDMSKMGLINKEEVLLPLDNPYGKITGTVKRKLPSRL
binds	Acyl-CoA dehydrogenase 11 (ACAD11) (enzyme, UniProt Q80XL6 1-779) METDVTSDTVEVLPQHKFDLRSLEAYLNQHLPGFGSDSRAVLTVTQYRSGQSNPTFFLQKGSQAYVLRKKPPGSLLPKAHKIDREFKIQKALFSIGFPVAKPLLYCRDASVIGTEFYVMEHVQGRIFRDFSIPGVSSAERAAIYVSVAETLAWLHSLDIRSLKLDKYGTGVGYCKRQVSTWTKQYQASAHQSIPAMDQLSTWLMKNLPDSDSEECLVHGDFKLDNIVFHPKECRVIAVLDWELSTFGHPLTDLAHLSLFYYWPRTLPMINRGSHIPENTGIPLMEELISIYCHRRGIDPNLPNWNFFMALSFFKLAGISQGVYRRYLMGNNSSEDSFLTANTVQPLAETGLQLSKRTLRTTPPQADAKSQLFAQSRRGQEVLTRVKQFMKQHVFPAEKEVAEYYAQSGNSAEKWGHPLVIEKLKEMAKAEGLWNLFLPAVSGLSQVDYALIAEETGKCFFAPDVFNCQAPDTGNMEVLHLYGSEQQKKQWLEPLLRGDITSVFCMTEPNVSSSDATNIECTIQRDGGGYIVNGKKWWSSGAGNPKCKIAIVLGRTESPSASRHRQHSMILVPMDTPGVELIRPLSVFGYMDNMHGGHWEVHFNHVRVPASNLILGEGRGFEISQGRLGPGRIHHCMRTVGLAERILQIMCDRAVQREAFKKKLYEHEVVAHWIAKSRIAIEEIRLLTLKAAHSIDTLGSASARKEIAMIKVAAPKAVCKIADWAIQVHGGAGVSQDYPLANMYAIIRTLRLADGPDEVHLSAIAKMELQDQARRLTARM
binds	Non-specific lipid-transfer protein (SCP2) (enzyme, UniProt P32020 1-547) MPSVALKSPRLRRVFVVGVGMTKFMKPGGENSRDYPDMAKEAGQKALEDAQIPYSAVEQACVGYVYGDSTSGQRAIYHSLGLTGIPIINVNNNCSTGSTALFMAHQLIQGGLANCVLALGFEKMERGSIGTKFSDRTTPTDKHIEVLIDKYGLSAHPITPQMFGYAGKEHMEKYGTKVEHFAKIGWKNHKHSVNNTYSQFQDEYSLEEVMKSKPVFDFLTILQCCPTSDGAAAAILSSEEFVQQYGLQSKAVEIVAQEMMTDLPSTFEEKSIIKVVGYDMSKEAARRCYEKSGLTPNDVDVIELHDCFSVNELITYEALGLCPEGQGGTLVDRGDNTYGGKWVINPSGGLISKGHPLGATGLAQCAELCWQLRGEAGKRQVPGAKVALQHNLGLGGAVVVTLYRMGFPEAASSFRTHQVSAAPTSSAGDGFKANLVFKEIEKKLEEEGEQFVKKIGGIFAFKVKDGPGGKEATWVVDVKNGKGSVLPNSDKKADCTITMADSDLLALMTGKMNPQSAFFQGKLKIAGNMGLAMKLQNLQLQPGKAKL

Second part, the molecule before the results:

Molecule	binding
Very long-chain acyl-CoA synthetase (SLC27A2) (from UniProt O35488 1-620) (enzyme)	binds
Peroxisomal bifunctional enzyme type 1 (EHHADH) (from UniProt Q9DBM2 1-718)	binds
Peroxisomal coenzyme A diphosphatase (NUDT7) (from UniProt Q99P30 1-236)	binds
Peroxisomal acyl-coenzyme A oxidase 1 (ACOX1) (enzyme, UniProt Q9R0H0 1-661) MNPDLRKERAAATFNPELITHILDGSPENTRRRREIENLILNDPDFQHEDYNFLTRSQRYEVAVKKSATMVKKMREFGIADPEEIMWFKKLHMVNFVEPVGLNYSMFIPTLLNQGTTAQQEKWMHPSQELQIIGTYAQTEMGHGTHLRGLETTATYDPKTQEFILNSPTVTSIKWWPGGLGKTSNHAIVLAQLITRGECYGLHAFVVPIREIGTHKPLPGITVGDIGPKFGYEEMDNGYLKMDNYRIPRENMLMKYAQVKPDGTYVKPLSNKLTYGTMVFVRSFLVGSAAQSLSKACTIAIRYSAVRRQSEIKRSEPEPQILDFQTQQYKLFPLLATAYAFHFLGRYIKETYMRINESIGQGDLSELPELHALTAGLKAFTTWTANAGIEECRMACGGHGYSHSSGIPNIYVTFTPACTFEGENTVMMLQTARFLMKIYDQVQSGKLVGGMVSYLNDLPSQRIQPQQVAVWPTLVDINSLDSLTEAYKLRAARLVEIAAKNLQAQVSHRKSKEVAWNLTSVDLVRASEAHCHYVTVKVFADKLPKIQDRAVQAVLRNLCLLYSLYGISQKGGDFLEGNIITGAQMSQVNSRILELLTVTRPNAVALVDAFDFKDVTLGSVLGRYDGNVYENLFEWAKKSPLNKTEVHESYYKHLKPLQSKL	binds
Catalase (CAT) (enzyme, UniProt P24270 1-527) MSDSRDPASDQMKQWKEQRASQRPDVLTTGGGNPIGDKLNIMTAGSRGPLLVQDVVFTDEMAHFDRERIPERVVHAKGAGAFGYFEVTHDITRYSKAKVFEHIGKRTPIAVRFSTVTGESGSADTVRDPRGFAVKFYTEDGNWDLVGNNTPIFFIRDAILFPSFIHSQKRNPQTHLKDPDMVWDFWSLRPESLHQVSFLFSDRGIPDGHRHMNGYGSHTFKLVNADGEAVYCKFHYKTDQGIKNLPVGEAGRLAQEDPDYGLRDLFNAIANGNYPSWTFYIQVMTFKEAETFPFNPFDLTKVWPHKDYPLIPVGKLVLNKNPVNYFAEVEQMAFDPSNMPPGIEPSPDKMLQGRLFAYPDTHRHRLGPNYLQIPVNCPYRARVANYQRDGPMCMHDNQGGAPNYYPNSFSAPEQQRSALEHSVQCAVDVKRFNSANEDNVTQVRTFYTKVLNEEERKRLCENIAGHLKDAQLFIQKKAVKNFTDVHPDYGARIQALLDKYNAEKPKNAIHTYTQAGSHMAAKGKANL	binds
Peroxisomal 2,4-dienoyl-CoA reductase (DECR2) (enzyme, UniProt Q9WV68 1-292) MAQPPPDVEGDDCLPEYHHLFCPDLLQDKVAFITGGGSGIGFRIAEIFMRHGCHTVIVGRSLQKVTTAAKKLVAATGKRCLPLSMDVRVPPEVMTAVDQALQEFGKINILINCAAGNFLCPASALSFNAFKTVVDIDTIGTFNVSSVLYKKFFRDHGGVIVNITATLSMRGQVLQLHAGAAKAAVDAMTRHLAVEWGPQNIRVNSLAPGAISGTEGLRRLRGSNASSKLKHFSNPIPRLGTKTEIAHSVLYLASPLASYVSGIVLVVDGGSWMTFPNGIKQLLEFESFSAKL	binds
Peroxisomal bifunctional enzyme type 2 (HSD17B4) (enzyme, UniProt P51660 1-735) MASPLRFDGRVVLVTGAGGGLGRAYALAFAERGALVIVNDLGGDFKGIGKGSSAADKVVAEIRRKGGKAVANYDSVEAGEKLVKTALDTFGRIDVVVNNAGILRDRSFSRISDEDWDIIHRVHLRGSFQVTRAAWDHMKKQNYGRILMTSSASGIYGNFGQANYSAAKLGILGLCNTLAIEGRKNNIHCNTIAPNAGSRMTETVLPEDLVEALKPEYVAPLVLWLCHESCEENGGLFEVGAGWIGKLRWERTLGAIVRKRNQPMTPEAVRDNWEKICDFSNASKPQTIQESTGGIVEVLHKVDSEGISPNRTSHAAPAATSGFVGAVGHKLPSFSSSYTELQSIMYALGVGASVKNPKDLKFVYEGSADFSCLPTFGVIVAQKSMMNGGLAEVPGLSFNFAKALHGEQYLELYKPLPRSGELKCEAVIADILDKGSGVVIVMDVYSYSGKELICYNQFSVFVVGSGGFGGKRTSEKLKAAVAVPNRPPDAVLRDATSLNQAALYRLSGDWNPLHIDPDFASVAGFEKPILHGLCTFGFSARHVLQQFADNDVSRFKAIKVRFAKPVYPGQTLQTEMWKEGNRIHFQTKVHETGDVVISNAYVDLVPASGVSTQTPSEGGELQSALVFGEIGRRLKSVGREVVKKANAVFEWHITKGGTVAAKWTIDLKSGSGEVYQGPAKGSADVTIIISDEDFMEVVFGKLDPQKAFFSGRLKARGNIMLSQKLQMILKDYAKL	binds
Peroxisomal sarcosine oxidase (PIPOX) (enzyme, UniProt Q9D826 1-390) MAAQTDFWDAIVIGAGIQGCFTAYHLAKHSKSVLLLEQFFLPHSRGSSHGQSRIIRKAYPEDFYTMMMKECYQTWAQLEREAGTQLHRQTELLLLGTKENPGLKTIQATLSRQGIDHEYLSSVDLKQRFPNIRFTRGEVGLLDKTGGVLYADKALRALQHIICQLGGTVCDGEKVVEIRPGLPVTVKTTLKSYQANSLVITAGPWTNRLLHPLGIELPLQTLRINVCYWREKVPGSYGVSQAFPCILGLDLAPHHIYGLPASEYPGLMKICYHHGDNVDPEERDCPKTFSDIQDVQILCHFVRDHLPGLRAEPDIMERCMYTNTPDEHFILDCHPKYDNIVIGAGFSGHGFKLAPVVGKILYELSMKLPPSYDLAPFRMSRFSTLSKAHL	binds
3-ketoacyl-CoA thiolase B (ACAA1b) (enzyme, UniProt Q8VCH0 27-424) SAGFLQASASDVVVVHGRRTPIGRASRGCFKDTTPDELLSAVLTAVLQDVKLKPEQLGDISVGNVLQPGAGAIMARIAQFLSGIPETVPLSTVNRQCSSGLQAVANIAGGIRNGSYDIGMACGVESMTLSQRGNHGNISSRLLENEKARDCLIPMGITSENVAERFGVSRQKQDAFALASQQKAASAQSRGCFHAEIVPVTTTVLNDKGDKKTITVSQDEGVRPSTTMQGLAKLKPAFKDGGSTTAGNSSQVSDGAAAVLLARRSKAEELGLPILGVLRSYAVVGVPPDVMGIGPAYAIPAALQKAGLTVNDIDIFEINEAFASQAVYCVEKLGIPAEKVNPLGGAIALGHPLGCTGARQVVTLLNELKRRGRRAYGVVSMCIGTGMGAAAVFEYPGN	binds

Results are given in words; binding and its absence hold for the method and conditions named. Binding seen in cells or lysates may run through a third protein. These calls come from enrichment with a bait or labelling near it, and not all partners need be listed.
